These are yes or no findings as the source states them, for the method shown. For some assays here: Binding seen in cells or lysates may run through a third protein. Some binding calls cover weakened binding; strength is not graded here.
T1: CITED2, endogenous (human (endogenous in HEK293T and prostate cancer cell lines)) (UniProt Q99967)
T1 sequence: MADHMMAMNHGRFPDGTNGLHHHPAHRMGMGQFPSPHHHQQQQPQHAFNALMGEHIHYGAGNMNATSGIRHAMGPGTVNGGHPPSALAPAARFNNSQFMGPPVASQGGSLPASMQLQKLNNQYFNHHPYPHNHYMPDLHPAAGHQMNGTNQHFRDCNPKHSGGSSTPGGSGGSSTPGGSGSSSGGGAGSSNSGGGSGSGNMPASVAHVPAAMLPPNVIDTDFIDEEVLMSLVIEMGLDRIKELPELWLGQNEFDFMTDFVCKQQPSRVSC

By UniProt entry, the sequences of proteins in these tests, tags left out.
UniProt P19338: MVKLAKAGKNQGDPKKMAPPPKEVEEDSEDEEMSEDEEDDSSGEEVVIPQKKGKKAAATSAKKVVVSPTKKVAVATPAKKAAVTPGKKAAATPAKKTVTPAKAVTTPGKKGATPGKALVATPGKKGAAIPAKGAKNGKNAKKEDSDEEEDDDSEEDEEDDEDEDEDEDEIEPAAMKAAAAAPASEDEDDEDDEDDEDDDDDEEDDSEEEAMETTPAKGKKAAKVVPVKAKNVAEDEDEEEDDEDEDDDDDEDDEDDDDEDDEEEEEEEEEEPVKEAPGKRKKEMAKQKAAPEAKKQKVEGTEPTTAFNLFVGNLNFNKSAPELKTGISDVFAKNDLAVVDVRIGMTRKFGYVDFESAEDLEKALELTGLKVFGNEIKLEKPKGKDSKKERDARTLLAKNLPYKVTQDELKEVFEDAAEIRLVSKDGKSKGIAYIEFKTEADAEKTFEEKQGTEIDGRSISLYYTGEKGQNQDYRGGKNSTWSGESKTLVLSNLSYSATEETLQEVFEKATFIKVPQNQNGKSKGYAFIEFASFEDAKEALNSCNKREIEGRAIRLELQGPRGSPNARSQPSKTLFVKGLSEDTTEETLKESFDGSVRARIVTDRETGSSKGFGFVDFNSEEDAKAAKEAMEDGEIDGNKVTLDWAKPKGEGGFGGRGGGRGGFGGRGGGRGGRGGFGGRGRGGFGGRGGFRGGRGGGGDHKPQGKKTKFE
UniProt Q9BQA1: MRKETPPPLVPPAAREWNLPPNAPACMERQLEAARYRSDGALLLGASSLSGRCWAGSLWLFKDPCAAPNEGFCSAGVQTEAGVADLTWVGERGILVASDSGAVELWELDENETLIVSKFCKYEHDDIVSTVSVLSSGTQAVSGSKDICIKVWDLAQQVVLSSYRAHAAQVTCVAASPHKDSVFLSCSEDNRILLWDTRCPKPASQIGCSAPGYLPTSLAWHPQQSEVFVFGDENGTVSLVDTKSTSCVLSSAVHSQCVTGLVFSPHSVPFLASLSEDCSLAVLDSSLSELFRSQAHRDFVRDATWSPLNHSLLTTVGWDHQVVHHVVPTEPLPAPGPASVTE
UniProt Q09472: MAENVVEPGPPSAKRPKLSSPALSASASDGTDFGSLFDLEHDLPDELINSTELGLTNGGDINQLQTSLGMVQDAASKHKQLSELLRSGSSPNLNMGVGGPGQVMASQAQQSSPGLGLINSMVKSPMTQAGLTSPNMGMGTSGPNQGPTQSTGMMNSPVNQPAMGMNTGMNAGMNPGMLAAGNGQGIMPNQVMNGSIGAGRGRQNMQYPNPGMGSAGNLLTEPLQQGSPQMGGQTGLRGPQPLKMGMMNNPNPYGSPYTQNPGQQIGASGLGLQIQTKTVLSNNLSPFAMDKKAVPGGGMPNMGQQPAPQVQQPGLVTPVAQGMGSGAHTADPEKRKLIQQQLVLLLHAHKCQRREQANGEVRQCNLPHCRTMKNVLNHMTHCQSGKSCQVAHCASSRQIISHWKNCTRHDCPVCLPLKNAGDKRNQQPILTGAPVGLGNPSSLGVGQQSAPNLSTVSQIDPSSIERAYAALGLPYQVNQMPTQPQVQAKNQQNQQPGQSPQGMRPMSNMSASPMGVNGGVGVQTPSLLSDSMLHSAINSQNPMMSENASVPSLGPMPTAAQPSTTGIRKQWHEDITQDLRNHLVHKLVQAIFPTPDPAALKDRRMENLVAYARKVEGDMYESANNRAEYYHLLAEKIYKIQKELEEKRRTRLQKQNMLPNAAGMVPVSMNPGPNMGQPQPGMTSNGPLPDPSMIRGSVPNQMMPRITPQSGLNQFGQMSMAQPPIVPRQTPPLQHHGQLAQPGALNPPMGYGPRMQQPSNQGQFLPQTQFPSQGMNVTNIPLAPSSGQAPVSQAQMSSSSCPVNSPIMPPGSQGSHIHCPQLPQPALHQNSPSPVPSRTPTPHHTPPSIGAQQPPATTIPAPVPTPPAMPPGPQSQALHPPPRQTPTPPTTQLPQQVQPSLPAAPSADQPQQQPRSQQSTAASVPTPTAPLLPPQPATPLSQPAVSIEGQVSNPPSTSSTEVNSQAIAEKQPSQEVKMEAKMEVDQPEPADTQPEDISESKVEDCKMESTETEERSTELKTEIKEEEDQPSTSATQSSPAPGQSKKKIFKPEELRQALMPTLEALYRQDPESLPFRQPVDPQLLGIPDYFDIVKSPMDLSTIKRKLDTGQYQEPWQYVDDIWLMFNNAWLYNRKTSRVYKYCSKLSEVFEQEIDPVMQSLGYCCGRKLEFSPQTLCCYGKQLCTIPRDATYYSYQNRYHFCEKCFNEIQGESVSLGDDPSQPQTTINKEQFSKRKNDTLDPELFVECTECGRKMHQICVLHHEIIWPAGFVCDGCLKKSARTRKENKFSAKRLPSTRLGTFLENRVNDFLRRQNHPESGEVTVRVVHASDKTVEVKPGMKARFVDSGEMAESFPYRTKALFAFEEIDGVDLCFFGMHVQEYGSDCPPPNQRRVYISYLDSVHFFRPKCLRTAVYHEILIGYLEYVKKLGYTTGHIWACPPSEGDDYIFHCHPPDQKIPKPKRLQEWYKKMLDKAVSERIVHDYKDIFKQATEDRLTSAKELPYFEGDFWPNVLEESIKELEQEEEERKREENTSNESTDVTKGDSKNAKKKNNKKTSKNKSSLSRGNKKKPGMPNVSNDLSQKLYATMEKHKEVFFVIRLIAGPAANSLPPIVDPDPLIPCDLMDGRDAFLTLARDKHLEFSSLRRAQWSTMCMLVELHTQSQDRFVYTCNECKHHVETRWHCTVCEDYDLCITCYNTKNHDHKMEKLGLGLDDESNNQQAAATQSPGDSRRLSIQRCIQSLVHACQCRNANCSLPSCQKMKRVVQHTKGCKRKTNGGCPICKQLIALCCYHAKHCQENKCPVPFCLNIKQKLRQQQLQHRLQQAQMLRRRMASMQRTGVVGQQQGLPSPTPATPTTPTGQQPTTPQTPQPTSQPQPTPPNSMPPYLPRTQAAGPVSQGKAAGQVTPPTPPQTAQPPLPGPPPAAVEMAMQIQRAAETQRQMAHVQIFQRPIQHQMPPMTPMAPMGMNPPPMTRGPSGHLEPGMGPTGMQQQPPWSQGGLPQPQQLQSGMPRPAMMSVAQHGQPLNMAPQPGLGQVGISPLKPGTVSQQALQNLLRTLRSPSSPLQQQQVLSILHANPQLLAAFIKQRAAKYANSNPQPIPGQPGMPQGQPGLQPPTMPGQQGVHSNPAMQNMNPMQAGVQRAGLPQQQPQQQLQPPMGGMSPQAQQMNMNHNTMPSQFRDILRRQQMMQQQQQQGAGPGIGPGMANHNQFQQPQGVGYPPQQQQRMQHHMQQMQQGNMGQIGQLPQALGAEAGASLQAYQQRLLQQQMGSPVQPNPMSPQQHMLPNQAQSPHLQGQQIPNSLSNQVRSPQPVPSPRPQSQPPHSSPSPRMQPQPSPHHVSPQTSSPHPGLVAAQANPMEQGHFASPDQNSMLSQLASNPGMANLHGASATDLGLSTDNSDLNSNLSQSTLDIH

T2: RIOK1, endogenous (human (endogenous in HEK293T and prostate cancer cell lines)) (UniProt Q9BRS2)
T2 sequence: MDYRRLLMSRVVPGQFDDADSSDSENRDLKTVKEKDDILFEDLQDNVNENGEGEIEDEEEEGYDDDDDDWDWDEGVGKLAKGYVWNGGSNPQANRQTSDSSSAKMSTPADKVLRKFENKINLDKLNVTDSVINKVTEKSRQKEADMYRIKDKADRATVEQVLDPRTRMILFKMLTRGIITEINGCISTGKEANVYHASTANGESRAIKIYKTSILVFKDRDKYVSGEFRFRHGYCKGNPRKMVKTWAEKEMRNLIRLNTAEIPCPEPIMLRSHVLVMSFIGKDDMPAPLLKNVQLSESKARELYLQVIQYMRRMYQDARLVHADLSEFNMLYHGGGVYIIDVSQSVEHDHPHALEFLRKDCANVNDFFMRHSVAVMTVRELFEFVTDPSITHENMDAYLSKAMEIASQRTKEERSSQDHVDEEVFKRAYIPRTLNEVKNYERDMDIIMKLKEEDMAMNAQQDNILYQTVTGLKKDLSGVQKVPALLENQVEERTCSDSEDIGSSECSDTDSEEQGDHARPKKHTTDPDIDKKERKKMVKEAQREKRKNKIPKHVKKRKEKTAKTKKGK


Experiments:
[1] = target: Flag/SBP-NCL (UniProt P19338); assay: co-IP; HEK293T cells cotransfected with Flag/SBP-NCL and CITED2 or si-CITED2; lysates immunoprecipitated with anti-Flag, immunoblotting
[2] = target: T3, Human recombinant protein NCL (human, UniProt P19338 1-710); assay: co-IP; in vitro binding assay: recombinant proteins CITED2, PRMT5, NCL and P300 put together in a test tube, immunoprecipitated with the indicated antibodies, immunoblotted; both purified
T3 construct: Nucleolin, human, recombinant protein bought from Origene; No catalogue number, host, tag or limits are printed; also called nucleolin; source: bought: Origene

[3] = target: T1, CITED2, endogenous (human (endogenous in HEK293T and prostate cancer cell lines)); assay: co-IP; endogenous proteins of HEK293T cells; immunoprecipitates with CITED2, PRMT5, NCL, WDR77 or RIOK1 antibodies, immunoblotting
[4] = target: T1, CITED2, endogenous (human (endogenous in HEK293T and prostate cancer cell lines)); assay: co-IP; prostate cancer cell lysates immunoprecipitated with anti-CITED2 antibody or IgG, immunoblotting
[5] = target: T1, CITED2, endogenous (human (endogenous in HEK293T and prostate cancer cell lines)); assay: SEC; FPLC of lysates of HEK293T cells transfected with pcDNA or CITED2; Superdex 200 10/300 GL, 4 °C; lysis buffer 20 mM Tris/HCl pH 7.5, 150 mM NaCl, 1 mM EDTA, 0.5% NP-40; eluates immunoblotted
[6] = target: WDR77, endogenous (human (endogenous in HEK293T and prostate cancer cell lines)) (UniProt Q9BQA1); assay: co-IP; endogenous proteins of HEK293T cells; immunoprecipitates with CITED2, PRMT5, NCL, WDR77 or RIOK1 antibodies, immunoblotting
[7] = target: T2, RIOK1, endogenous (human (endogenous in HEK293T and prostate cancer cell lines)); assay: as above
[8] = target: Nucleolin (NCL), endogenous (human (endogenous in HEK293T and prostate cancer cell lines)) (UniProt P19338); assay: as above

Molecule | binding [3] | binding [4] | binding [5] | other results
p300, endogenous (from UniProt Q09472 1-2414) |  |  |  | binding [1]: binds
Human recombinant protein P300 (from UniProt Q09472 1-2414) |  |  |  | binding [2]: binds
Human recombinant protein CITED2 (natural protein, UniProt Q99967 1-270, looked up, CITED2, human, recombinant protein bought from Origene; No catalogue number, host, tag or limits are printed; source: bought: Origene) MADHMMAMNHGRFPDGTNGLHHHPAHRMGMGQFPSPHHHQQQQPQHAFNALMGEHIHYGAGNMNATSGIRHAMGPGTVNGGHPPSALAPAARFNNSQFMGPPVASQGGSLPASMQLQKLNNQYFNHHPYPHNHYMPDLHPAAGHQMNGTNQHFRDCNPKHSGGSSTPGGSGGSSTPGGSGSSSGGGAGSSNSGGGSGSGNMPASVAHVPAAMLPPNVIDTDFIDEEVLMSLVIEMGLDRIKELPELWLGQNEFDFMTDFVCKQQPSRVSC |  |  |  | binding [6]: binds; binding [7]: binds; binding [8]: binds

Further lines, with some results ahead:

binding [3] | binding [4] | binding [5] | Molecule | other results
binds | binds | binds | WDR77, endogenous (from UniProt Q9BQA1 1-342) | 
binds | binds | binds | RIOK1, endogenous (protein, UniProt Q9BRS2 1-568) MDYRRLLMSRVVPGQFDDADSSDSENRDLKTVKEKDDILFEDLQDNVNENGEGEIEDEEEEGYDDDDDDWDWDEGVGKLAKGYVWNGGSNPQANRQTSDSSSAKMSTPADKVLRKFENKINLDKLNVTDSVINKVTEKSRQKEADMYRIKDKADRATVEQVLDPRTRMILFKMLTRGIITEINGCISTGKEANVYHASTANGESRAIKIYKTSILVFKDRDKYVSGEFRFRHGYCKGNPRKMVKTWAEKEMRNLIRLNTAEIPCPEPIMLRSHVLVMSFIGKDDMPAPLLKNVQLSESKARELYLQVIQYMRRMYQDARLVHADLSEFNMLYHGGGVYIIDVSQSVEHDHPHALEFLRKDCANVNDFFMRHSVAVMTVRELFEFVTDPSITHENMDAYLSKAMEIASQRTKEERSSQDHVDEEVFKRAYIPRTLNEVKNYERDMDIIMKLKEEDMAMNAQQDNILYQTVTGLKKDLSGVQKVPALLENQVEERTCSDSEDIGSSECSDTDSEEQGDHARPKKHTTDPDIDKKERKKMVKEAQREKRKNKIPKHVKKRKEKTAKTKKGK | 
